In the supplement of paper PMC8728848:
This is one part of the list.

Legend:
Assay in all cases: glycan array binding signal (z-score within array); higher = stronger binding
Details in all cases: glycan notation: IUPAC condensed, linker removed
[1] = target: Neu5Ac(a2-3)Gal(b1-4)GlcNAc(b1-6)[Gal(b1-3)]GalNAc
In short: (§1)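 Glycan array data were curated from 3228 arrays in the Consortium for Functional Glycomics database and kept only where the protein sequence was available. Glycan names were converted to IUPAC-condensed notation, and columns mapping to the same glycan were averaged. The binding signal is a within-array Z-score, averaged across arrays of the same protein sequence at different concentrations or buffers and across linkers. Negative Z-scores can be read as non-binding.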

[2] = target: Neu5Ac(a2-3)Gal(b1-4)GlcNAc(b1-6)[Neu5Ac(a2-3)Gal(b1-3)]GalNAc
In short: as §1

[3] = target: Neu5Ac(a2-3)Gal(b1-4)GlcNAc6S
In short: as §1

[4] = target: Neu5Ac(a2-3)Gal(b1-4)[Fuc(a1-3)]GlcNAc
In short: as §1

[5] = target: Neu5Ac(a2-3)Gal(b1-4)[Fuc(a1-3)]GlcNAc(b1-2)Man
In short: as §1

[6] = target: Neu5Ac(a2-3)Gal(b1-4)[Fuc(a1-3)]GlcNAc(b1-3)Gal
In short: as §1

[7] = target: Neu5Ac(a2-3)Gal(b1-4)[Fuc(a1-3)]GlcNAc(b1-3)Gal(b1-4)GlcNAc
In short: as §1

[8] = target: Neu5Ac(a2-3)Gal(b1-4)[Fuc(a1-3)]GlcNAc(b1-3)Gal(b1-4)[Fuc(a1-3)]GlcNAc(b1-3)Gal(b1-4)[Fuc(a1-3)]GlcNAc
In short: as §1

[9] = target: Neu5Ac(a2-3)Gal(b1-4)[Fuc(a1-3)]GlcNAc(b1-3)GalNAc
In short: as §1

[10] = target: Neu5Ac(a2-3)Gal(b1-4)[Fuc(a1-3)]GlcNAc(b1-6)[Gal(b1-3)]GalNAc
In short: as §1

[11] = target: Neu5Ac(a2-3)Gal(b1-4)[Fuc(a1-3)]GlcNAc(b1-6)[Neu5Ac(a2-3)Gal(b1-3)]GalNAc
In short: as §1

[12] = target: Neu5Ac(a2-3)Gal(b1-4)[Fuc(a1-3)]GlcNAc6S
In short: as §1

[13] = target: Neu5Ac(a2-3)Gal6S(b1-4)GlcNAc
In short: as §1

[14] = target: Neu5Ac(a2-3)Gal6S(b1-4)[Fuc(a1-3)]GlcNAc
In short: as §1

Neu5Ac(a2-3)GalNAc = target: Neu5Ac(a2-3)GalNAc
In short: as §1

[15] = target: Neu5Ac(a2-3)GalNAc(b1-4)GlcNAc
In short: as §1

[16] = target: Neu5Ac(a2-3)[GalNAc(b1-4)]Gal(b1-4)Glc
In short: as §1

[17] = target: Neu5Ac(a2-3)[GalNAc(b1-4)]Gal(b1-4)GlcNAc
In short: as §1

[18] = target: Neu5Ac(a2-3)[GalNAc(b1-4)]Gal(b1-4)GlcNAc(b1-3)GalNAc
In short: as §1

[19] = target: Neu5Ac(a2-3)[Neu5Ac(a2-6)]GalNAc
In short: as §1

Neu5Ac(a2-6)Gal = target: Neu5Ac(a2-6)Gal
In short: as §1

[20] = target: Neu5Ac(a2-6)Gal(b1-3)GlcNAc(b1-3)[Gal(b1-4)GlcNAc(b1-6)]Gal(b1-4)Glc
In short: as §1

Neu5Ac(a2-6)Gal(b1-4)Glc = target: Neu5Ac(a2-6)Gal(b1-4)Glc
In short: as §1

[21] = target: Neu5Ac(a2-6)Gal(b1-4)GlcNAc
In short: as §1

[22] = target: Neu5Ac(a2-6)Gal(b1-4)GlcNAc(b1-2)Man
In short: as §1

[23] = target: Neu5Ac(a2-6)Gal(b1-4)GlcNAc(b1-2)Man(a1-3)Man(b1-4)GlcNAc(b1-4)GlcNAc
In short: as §1

[24] = target: Neu5Ac(a2-6)Gal(b1-4)GlcNAc(b1-2)Man(a1-3)[Gal(b1-4)GlcNAc(b1-2)Man(a1-6)]Man(b1-4)GlcNAc(b1-4)GlcNAc
In short: as §1

[25] = target: Neu5Ac(a2-6)Gal(b1-4)GlcNAc(b1-2)Man(a1-3)[GlcNAc(b1-2)Man(a1-6)]Man(b1-4)GlcNAc(b1-4)GlcNAc
In short: as §1

[26] = target: Neu5Ac(a2-6)Gal(b1-4)GlcNAc(b1-2)Man(a1-3)[GlcNAc(b1-4)][Neu5Ac(a2-6)Gal(b1-4)GlcNAc(b1-2)Man(a1-6)]Man(b1-4)GlcNAc(b1-4)GlcNAc
In short: as §1

[27] = target: Neu5Ac(a2-6)Gal(b1-4)GlcNAc(b1-2)Man(a1-3)[Man(a1-6)]Man(b1-4)GlcNAc(b1-4)GlcNAc
In short: as §1

[28] = target: Neu5Ac(a2-6)Gal(b1-4)GlcNAc(b1-2)Man(a1-3)[Neu5Ac(a2-3)Gal(b1-4)GlcNAc(b1-2)Man(a1-6)]Man(b1-4)GlcNAc(b1-4)GlcNAc
In short: as §1

[29] = target: Neu5Ac(a2-6)Gal(b1-4)GlcNAc(b1-2)Man(a1-3)[Neu5Ac(a2-6)Gal(b1-4)GlcNAc(b1-2)Man(a1-6)]Man(b1-4)GlcNAc(b1-4)GlcNAc
In short: as §1

[30] = target: Neu5Ac(a2-6)Gal(b1-4)GlcNAc(b1-2)Man(a1-3)[Neu5Ac(a2-6)Gal(b1-4)GlcNAc(b1-2)Man(a1-6)]Man(b1-4)GlcNAc(b1-4)[Fuc(a1-6)]GlcNAc
In short: as §1

[31] = target: Neu5Ac(a2-6)Gal(b1-4)GlcNAc(b1-2)Man(a1-6)Man(b1-4)GlcNAc(b1-4)GlcNAc
In short: as §1

[32] = target: Neu5Ac(a2-6)Gal(b1-4)GlcNAc(b1-2)Man(a1-6)[Gal(b1-4)GlcNAc(b1-2)Man(a1-3)]Man(b1-4)GlcNAc(b1-4)GlcNAc
In short: as §1

[33] = target: Neu5Ac(a2-6)Gal(b1-4)GlcNAc(b1-2)Man(a1-6)[GlcNAc(b1-2)Man(a1-3)]Man(b1-4)GlcNAc(b1-4)GlcNAc
In short: as §1

[34] = target: Neu5Ac(a2-6)Gal(b1-4)GlcNAc(b1-2)Man(a1-6)[Man(a1-3)]Man(b1-4)GlcNAc(b1-4)GlcNAc
In short: as §1

[35] = target: Neu5Ac(a2-6)Gal(b1-4)GlcNAc(b1-2)[Neu5Ac(a2-6)Gal(b1-4)GlcNAc(b1-4)]Man(a1-3)[GlcNAc(b1-4)][Neu5Ac(a2-6)Gal(b1-4)GlcNAc(b1-2)[Neu5Ac(a2-6)Gal(b1-4)GlcNAc(b1-6)]Man(a1-6)]Man(b1-4)GlcNAc(b1-4)GlcNAc
In short: as §1

[36] = target: Neu5Ac(a2-6)Gal(b1-4)GlcNAc(b1-2)[Neu5Ac(a2-6)Gal(b1-4)GlcNAc(b1-4)]Man(a1-3)[GlcNAc(b1-4)][Neu5Ac(a2-6)Gal(b1-4)GlcNAc(b1-4)Man(a1-6)]Man(b1-4)GlcNAc(b1-4)GlcNAc
In short: as §1

[37] = target: Neu5Ac(a2-6)Gal(b1-4)GlcNAc(b1-2)[Neu5Ac(a2-6)Gal(b1-4)GlcNAc(b1-6)]Man(a1-6)[Neu5Ac(a2-6)Gal(b1-4)GlcNAc(b1-2)Man(a1-3)][GlcNAc(b1-4)]Man(b1-4)GlcNAc(b1-4)GlcNAc
In short: as §1

[38] = target: Neu5Ac(a2-6)Gal(b1-4)GlcNAc(b1-3)Gal(b1-3)GlcNAc
In short: as §1

[39] = target: Neu5Ac(a2-6)Gal(b1-4)GlcNAc(b1-3)Gal(b1-4)GlcNAc
In short: as §1

[40] = target: Neu5Ac(a2-6)Gal(b1-4)GlcNAc(b1-3)Gal(b1-4)GlcNAc(b1-2)Man(a1-3)[Neu5Ac(a2-6)Gal(b1-4)GlcNAc(b1-3)Gal(b1-4)GlcNAc(b1-2)Man(a1-6)]GalNAc
In short: as §1

[41] = target: Neu5Ac(a2-6)Gal(b1-4)GlcNAc(b1-3)Gal(b1-4)GlcNAc(b1-3)Gal(b1-4)GlcNAc
In short: as §1

[42] = target: Neu5Ac(a2-6)Gal(b1-4)GlcNAc(b1-3)Gal(b1-4)GlcNAc(b1-3)Gal(b1-4)GlcNAc(b1-2)Man(a1-3)[Neu5Ac(a2-6)Gal(b1-4)GlcNAc(b1-3)Gal(b1-4)GlcNAc(b1-3)Gal(b1-4)GlcNAc(b1-2)Man(a1-6)]GalNAc
In short: as §1

B1: Pbx1CASH domain (Cryptococcus neoformans) (protein)
chain: MDETKPLWGNPRADGISLACKDSIVERNVVYDATDGAIVLFGSAGSTVKNNHVYARTRVILGGINLVDYEPWDGDYTNVKVHHNHLYALGRYFKVGIVIGPASWSDDTESVVHSASVTDNEFSGGYWGYGIVVASAKNFEVLRNKVIWDGEQGVARFSGVPGS
- glycan array binding signal (z-score) [1]: -0.539
- glycan array binding signal (z-score) [2]: 0.825
- glycan array binding signal (z-score) [3]: -0.985
- glycan array binding signal (z-score) [4]: -1.03
- glycan array binding signal (z-score) [5]: 0.83
- glycan array binding signal (z-score) [6]: -0.746
- glycan array binding signal (z-score) [7]: -0.436
- glycan array binding signal (z-score) [8]: -0.748
- glycan array binding signal (z-score) [9]: 0.771
- glycan array binding signal (z-score) [10]: -0.356
- glycan array binding signal (z-score) [11]: -0.516
- glycan array binding signal (z-score) [12]: -0.751
- glycan array binding signal (z-score) [13]: -0.331
- glycan array binding signal (z-score) [14]: -0.838
- glycan array binding signal (z-score) (Neu5Ac(a2-3)GalNAc): -0.804
- glycan array binding signal (z-score) [15]: -0.34
- glycan array binding signal (z-score) [16]: -0.534
- glycan array binding signal (z-score) [17]: -0.754
- glycan array binding signal (z-score) [18]: 1.22
- glycan array binding signal (z-score) [19]: -0.817
- glycan array binding signal (z-score) (Neu5Ac(a2-6)Gal): -1.04
- glycan array binding signal (z-score) [20]: 0.736
- glycan array binding signal (z-score) (Neu5Ac(a2-6)Gal(b1-4)Glc): -0.412
- glycan array binding signal (z-score) [21]: -0.348
- glycan array binding signal (z-score) [22]: 0.138
- glycan array binding signal (z-score) [23]: -0.856
- glycan array binding signal (z-score) [24]: 0.565
- glycan array binding signal (z-score) [25]: 0.38
- glycan array binding signal (z-score) [26]: 1.33
- glycan array binding signal (z-score) [27]: -0.637
- glycan array binding signal (z-score) [28]: -0.338
- glycan array binding signal (z-score) [29]: -0.106
- glycan array binding signal (z-score) [30]: -0.909
- glycan array binding signal (z-score) [31]: -0.857
- glycan array binding signal (z-score) [32]: -0.843
- glycan array binding signal (z-score) [33]: 0.135
- glycan array binding signal (z-score) [34]: -0.67
- glycan array binding signal (z-score) [35]: 0.958
- glycan array binding signal (z-score) [36]: 1.5
- glycan array binding signal (z-score) [37]: 1.46
- glycan array binding signal (z-score) [38]: 0.16
- glycan array binding signal (z-score) [39]: -0.334
- glycan array binding signal (z-score) [40]: 1.6
- glycan array binding signal (z-score) [41]: -0.247
- glycan array binding signal (z-score) [42]: 3.13
